Values from PubChem BioAssay AID743454 (Peter MacCallum Cancer Centre, 2014)
In all, the deposit lists about 18,000 reagents; shown is a random part of them. Over the whole deposit, 450 (2.5%) are marked active. 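Single biological run; no consistent viability z cut-off exists, so the class columns, not z-scores, define the calls.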 Unmarked entries are inactive.

Purpose: 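Search for knock-downs that restore vorinostat killing in resistant colon cancer cells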 (primary screen)
Cell system: human HCT116-VR colon cancer cells, selected for vorinostat resistance
Reagent: siRNA pool against human genes, 40 nM siRNA pool
Time to read-out: vorinostat for 24 h, read-out about 72 h after transfection
Treatment: vorinostat at 2.5 µM final
Measured: 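Cell viability by CellTiter-Fluor and caspase 3/7 activity by luminescence, each scaled to mock wells per plate, duplicates averaged, then robust z-scored over all plates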
Reading the numbers: viability robust z-score: higher = more viable cells than screen typical; caspase robust z-score: higher = more caspase 3/7 activity than screen typical
Active means: 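a knock-down is a hit when classed RV1 or RV2 for lowered viability, or CA1 or CA2 for caspase activation; those lethal without drug were dropped; hits were retested singly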

no.	target gene	viability hit class	caspase hit class	viability robust z-score	caspase robust z-score
1	FEZ1 (GeneID 9638)	no change	no change	0.32	-0.04
2	COL11A1 (GeneID 1301)	no change	no change	1.28	1.83
3	VGLL2 (GeneID 245806)	no change	no change	-0.34	0.2
4	HDDC2 (GeneID 51020)	no change	no change	0.81	0.16
5	ASPHD2 (GeneID 57168)	no change	no change	0.97	0.8
6	ABCG8 (GeneID 64241)	no change	no change	0.57	0.54
7	SRSF9 (GeneID 8683)	no change	no change	0.78	-0.52
8	SYT14 (GeneID 255928)	no change	no change	0.72	0.18
9	NLRP6 (GeneID 171389)	no change	no change	0.38	1.81
10	ARMC9 (GeneID 80210)	no change	no change	-0.55	-0.66
11	ADGRG6 (GeneID 57211)	no change	no change	1.27	-0.31
12	MRFAP1 (GeneID 93621)	no change	no change	0.06	-0.7
13	UPF3B (GeneID 65109)	no change	no change	0.26	-1.1
14	RPL10L (GeneID 140801)	no change	no change	-1.07	-0.29
15	TCP10L (GeneID 140290)	no change	no change	-0.54	-0.97
16	ZMYM6 (GeneID 9204)	no change	no change	0	0.1
17	AGBL3 (GeneID 340351)	no change	no change	-0.27	-0.86
18	KRTAP10-9 (GeneID 386676)	no change	no change	-0.5	2.41
19	ARTN (GeneID 9048)	no change	no change	-1.1	-0.79
20	SLC2A12 (GeneID 154091)	no change	no change	-0.21	-0.43
21	FAM76A (GeneID 199870)	no change	no change	0.37	0.07
22	A1CF (GeneID 29974)	no change	no change	1.4	-0.16
23	TMX1 (GeneID 81542)	no change	no change	-0.4	-1.28
24	CLP1 (GeneID 10978)	no change	no change	-1.88	0.63
25	WASHC5 (GeneID 9897)	no change	no change	-0.88	-0.41
26	KLRC2 (GeneID 3822)	no change	no change	2.42	-0.11
27	MS4A4A (GeneID 51338)	no change	no change	-0.66	-0.66
28	METTL22 (GeneID 79091)	no change	no change	0.05	0.48
29	MRPL41 (GeneID 64975)	no change	no change	0.09	-0.55
30	CENPH (GeneID 64946)	no change	no change	-0.52	-0.01
31	WDR27 (GeneID 253769)	no change	no change	-0.04	1.22
32	PNOC (GeneID 5368)	no change	no change	-0.44	-0.88
33	PIGX (GeneID 54965)	no change	no change	-1.64	2.72
34	FOXN4 (GeneID 121643)	no change	no change	0.1	1.58
35	BRDT (GeneID 676)	no change	no change	-1.19	-0.38
36	EIF4EBP3 (GeneID 8637)	no change	no change	-0.04	-0.59
37	ID4 (GeneID 3400)	no change	no change	0.18	-0.8
38	AOX1 (GeneID 316)	no change	no change	-2.29	2.71
39	MED21 (GeneID 9412)	no change	no change	-2.92	2.36
40	TEX10 (GeneID 54881)	no change	no change	-0.53	-0.89
41	CHST7 (GeneID 56548)	no change	no change	0.2	-1.1
42	ADAMTSL5 (GeneID 339366)	no change	no change	0.04	-0.38
43	UNC5B (GeneID 219699)	no change	no change	1.15	-0.22
44	ARHGEF25 (GeneID 115557)	no change	no change	-0.5	0
45	PIP4P1 (GeneID 90809)	no change	no change	-0.01	-0.72
46	CDC42EP1 (GeneID 11135)	no change	no change	-0.7	3.52
47	FAM135B (GeneID 51059)	no change	no change	-0.12	1.88
48	EBF1 (GeneID 1879)	no change	no change	-0.62	-0.91
49	MIOX (GeneID 55586)	no change	no change	-2.33	4.54
50	DLG3 (GeneID 1741)	no change	no change	2	-0.43
51	PAH (GeneID 5053)	no change	no change	1.51	-0.66
52	ACOT11 (GeneID 26027)	no change	no change	0.16	1.32
53	TTC14 (GeneID 151613)	no change	no change	-0.73	-1.25
54	KANSL1 (GeneID 284058)	no change	no change	-1.01	1.25
55	OSTF1 (GeneID 26578)	no change	no change	-0.32	-1.27
56	SATL1 (GeneID 340562)	no change	no change	0.97	0.08
57	CCNL1 (GeneID 57018)	no change	no change	-2.19	-1.07

Ordered by “viability robust z-score” (descending): some entries from above
target gene	viability hit class	caspase hit class	viability robust z-score	caspase robust z-score
DLG3 (GeneID 1741)	no change	no change	2	-0.43
PAH (GeneID 5053)	no change	no change	1.51	-0.66
ACOT11 (GeneID 26027)	no change	no change	0.16	1.32
PIP4P1 (GeneID 90809)	no change	no change	-0.01	-0.72
FAM135B (GeneID 51059)	no change	no change	-0.12	1.88
EBF1 (GeneID 1879)	no change	no change	-0.62	-0.91
CDC42EP1 (GeneID 11135)	no change	no change	-0.7	3.52
TTC14 (GeneID 151613)	no change	no change	-0.73	-1.25
MIOX (GeneID 55586)	no change	no change	-2.33	4.54
